According to the supplement of paper PMC7024190:
Counter-ions that a name gives are not always drawn. This is one part of the list. Repeats in this data set agree poorly, so a single value says little.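 Human embryonic kidney cells were transiently transfected with a plasmid bearing a Renilla luciferase gene under the HSV-TK promoter. This first-round screen tests roughly ten thousand compounds for ones that increase reporter output.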

Tested on: HEK 293FT
Test: log relative Renilla luciferase luminescence (reporter expression vs reference, reference not stated) (log (base not stated)); higher = higher recombinant reporter expression
Conditions: 10 µM; time after transfection 48 h

Row | SMILES | log
1 | COc1cc([C@@H]2c3cc4c(cc3[C@H](O)[C@H]3COC(=O)[C@H]23)OCO4)cc(OC)c1OC [podofilox] | -0.0071
2 | O=[N+]([O-])c1ccc([As](=O)(O)O)cc1 [nitarsone] | 0.0837
3 | CNC(C)[C@H](O)c1ccccc1 (some centres undefined) [ephedrine (1r,2s) hydrochloride] | 0.129
4 | NCCc1c[nH]c2ccc(O)cc12 [serotonin hydrochloride] | 0.193
5 | CCN(C(C)=O)c1cccc(-c2ccnc3c(C#N)cnn23)c1 [zaleplon] | -0.081
6 | COc1ccc(C[C@H]2NC[C@H](O)[C@H]2OC(C)=O)cc1 [anisomycin] | -1.44
7 | COc1ccc2c(c1)[nH]c1c(C)nccc12 [harmine] | -0.0323
8 | CC1(C)C(C=C(Cl)Cl)C1C(=O)OCc1cccc(Oc2ccccc2)c1 (centres undefined) [permethrin] | 0.111
9 | C[N+]12CCC(CC1)C(OC(=O)C(O)(c1ccccc1)c1ccccc1)C2 (centres undefined) [clidinium bromide] | -0.0731
10 | O=C(O)CCC1NCC2CC1CN1CCCCC21 (centres undefined) [lupanyl acid hydrochloride] | 0.204
11 | OC[C@@H](O)[C@H]1O[C@@H]2O[C@H](C(Cl)(Cl)Cl)O[C@@H]2[C@H]1O [chloralose] | 0.0849
12 | COc1cc2c(cc1OC)[C@@H]1C(=O)c3ccc4oc(C(C)C)cc4c3O[C@@H]1CO2 [isorotenone] | -1.98
13 | CC(=O)[C@H]1CC[C@H]2[C@@H]3CC[C@@H]4C[C@H](O)CC[C@]4(C)[C@H]3CC[C@]12C [eltanolone] | -0.054
14 | CC(CC(C(N)=O)(c1ccccc1)c1ccccc1)N(C)C (centres undefined) [aminopentamide sulfate] | -0.0666
15 | C[C@]12CC[C@H]3[C@@H](CCC4=CC(=O)CC[C@@]43C)[C@@H]1CC[C@H]2O [epitestosterone] | 0.0326
16 | O=C1CCC[C@@H]2[C@H]3C[C@@H](CN12)[C@@H]1CCCCN1C3.[O-][Cl+3]([O-])([O-])O [lupanine perchlorate] | 0.154
17 | COC[C@]12CN(C=O)[C@@H]3[C@@H]4[C@H](OC)[C@H]1[C@@]3([C@@H](OC)C[C@H]2O)[C@@H]1C[C@@]2(O)[C@H](OC(=O)c3ccccc3)[C@@H]1[C@]4(OC(C)=O)[C@@H](O)[C@@H]2OC [oxonitine] | 0.0406
18 | CC(C)=CCCC1(C)C=Cc2c(O)c3c(c(CC=C(C)C)c2O1)OC12C(=CC4CC1C(C)(C)OC2(C/C=C(/C)C(=O)O)C4O)C3=O (centres undefined) [dihydrogambogic acid] | -1.55
19 | C[C@H]1C(=O)O[C@@H]2CCN3CC=C(COC(=O)[C@](C)(O)[C@]1(C)O)[C@H]23 [monocrotaline] | 0.025
20 | COC(=O)C(c1ccccc1)C1CCCCN1 (centres undefined) [methylphenidate hydrochloride] | 0.0583
21 | CC(=O)OCC1=C(C(=O)O)N2C(=O)[C@@H](N)[C@H]2SC1 [7-aminocephalosporanic acid] | 0.117
22 | CO[C@]12C[C@@H](COC(=O)c3cncc(Br)c3)CN(C)[C@@H]1Cc1cn(C)c3cccc2c13 [nicergoline] | 0.102
23 | C/C=C(/C)C(=O)O[C@H]1CC[C@@]2(C)[C@@H]3CC[C@H]4[C@]5(O)C[C@H](O)[C@@]6(O)[C@@H](CN7C[C@@H](C)CC[C@H]7[C@@]6(C)O)[C@]5(O)C[C@]42O[C@]13O [veratrine sulfate] | -0.0721

An excerpt of these results, in CSV form:
Row,SMILES,log
7,COc1ccc2c(c1)[nH]c1c(C)nccc12 [harmine],-0.0323
8,CC1(C)C(C=C(Cl)Cl)C1C(=O)OCc1cccc(Oc2ccccc2)c1 (centres undefined) [permethrin],0.111
9,C[N+]12CCC(CC1)C(OC(=O)C(O)(c1ccccc1)c1ccccc1)C2 (centres undefined) [clidinium bromide],-0.0731

Further results:

Row | SMILES | log
24 | O=C1NC(=O)C(=O)C(=O)N1 [alloxan] | 0.0176
25 | CC(C)C[C@H](CN)CC(=O)O [pregabalin] | 0.118
26 | CN(C)C(=S)SSC(=S)N(C)C [thiram] | -2.02
27 | CCC(C)(C)O [amylene hydrate] | 0.0884
28 | CC(C)(C)NCC(O)c1ccccc1Cl (centres undefined) [tulobuterol hydrochloride] | 0.00499
29 | COc1cc2c(cc1-c1cc3cc4ccoc4cc3oc1=O)OCO2 [pachyrrhizin] | -0.128
30 | CC1=C2[C@H]3OC(=O)[C@@H](C)[C@@H]3CC[C@@]2(C)C=CC1=O [santonin] | 0.0192
31 | CCC(N)C(O)c1ccc(O)c(O)c1 (centres undefined) [ethylnorepinephrine hydrochloride] | 0.00789
32 | O=C1C=C2C(=CCOC2O)O1 (centres undefined) [patulin] | -1.51
33 | COc1ccc(CCN2CCC(Nc3nc4ccccc4n3Cc3ccc(F)cc3)CC2)cc1 [astemizole] | 0.2
34 | CC(=O)O[C@H]1C[C@H](O[C@H]2[C@@H](O)C[C@H](O[C@H]3[C@@H](O)C[C@H](O[C@H]4CC[C@@]5(C)[C@H](CC[C@@H]6[C@@H]5C[C@@H](O)[C@]5(C)[C@@H](C7=CC(=O)OC7)CC[C@]65O)C4)O[C@@H]3C)O[C@@H]2C)O[C@H](C)[C@H]1O[C@@H]1O[C@H](CO)[C@@H](O)[C@H](O)[C@H]1O [lanatoside c] | -1.61
35 | Oc1cc(Cl)ccc1Oc1ccc(Cl)cc1Cl [triclosan] | -0.539
36 | CC1(C)C(C=C(Cl)Cl)C1C(=O)OC(C#N)c1cccc(Oc2ccccc2)c1 (centres undefined) [cypermethrin] | -0.00227
37 | COc1ccc(Cc2nccc3cc(OC)c(OC)cc23)cc1OC [papaverine hydrochloride] | -0.546
38 | CCC1(CC)C(=O)C=CNC1=O [pyrithyldione] | 0.0521
39 | COc1cc2c(c(OC)c1OC)-c1ccc(=O)c(O)cc1[C@@H](NC(C)=O)CC2 [colchiceine] | -0.00674
40 | C[C@]12CC[C@H]3[C@@H](CC[C@@]45O[C@@H]4C(O)=C(C#N)C[C@]35C)[C@@H]1CC[C@@H]2O [trilostane] | 0.103
41 | O=C(N/N=C/c1ccc([N+](=O)[O-])o1)c1cc([N+](=O)[O-])cc([N+](=O)[O-])c1O [nifursol] | -0.173
42 | C=C(C)[C@H]1Cc2c(ccc3c2O[C@@H]2COc4cc(OC)c(OC)cc4[C@@H]2C3=O)O1 [rotenone] | -0.932
43 | COC(=O)C1=CCCN(C)C1 [arecoline hydrobromide] | 0.121
44 | COc1cc2c(cc1OC)[C@@]13CCN4CC5=CCO[C@H]6CC(=O)N2[C@H]1[C@H]6[C@H]5C[C@H]43 [brucine] | -0.11
45 | CC(C)(C)NCC(O)c1cc(Cl)c(N)c(Cl)c1 (centres undefined) [clenbuterol hydrochloride] | -0.119
46 | COc1cc2c(cc1OC)[C@H](C)NCC2 [salsolidine] | 0.212

Row | SMILES | log
47 | O=C(NC(=O)c1c(F)cccc1F)Nc1cc(Cl)c(OC(F)(F)C(F)C(F)(F)F)cc1Cl (centres undefined) [lufenuron] | -0.119
48 | CNCC(=O)c1ccc(O)c(O)c1 [adrenolone hydrochloride] | 0.155
49 | CC[C@@H](c1cccc(O)c1)[C@@H](C)CN(C)C [tapentadol hydrochloride] | 0.119
50 | CN(C)C(=O)Oc1cc(OC(=O)N(C)C)cc(C(O)CNC(C)(C)C)c1 (centres undefined) [bambuterol hydrochloride] | -0.0868
51 | NCCc1ccc(O)cc1 [tyramine] | 0.0398
52 | C[N+]1(C)[C@@H]2C[C@@H](OC(=O)[C@H](CO)c3ccccc3)C[C@H]1[C@@H]1O[C@@H]12 [methscopolamine bromide] | -0.0623
53 | C[C@]12CC[C@H](O)C[C@@H]1CC[C@@H]1[C@@H]2CC[C@]2(C)C(=O)CC[C@@H]12 [epiandrosterone] | -0.00347
54 | CCn1cc(C(=O)O)c(=O)c2cc3c(cc21)OCO3 [oxolinic acid] | -0.126
55 | CCC1(c2ccc(N)cc2)CCC(=O)NC1=O (centres undefined) [aminoglutethimide] | -0.0274
56 | CCN(C)C(=O)Oc1cccc([C@H](C)N(C)C)c1 [rivastigmine tartrate] | -0.121
57 | C[C@@H]1O[C@@H](O[C@H]2C[C@@H](O)[C@]3(CO)[C@H]4[C@H](O)C[C@]5(C)[C@@H](C6=CC(=O)OC6)CC[C@]5(O)[C@@H]4CC[C@]3(O)C2)[C@H](O)[C@H](O)[C@H]1O [ouabain] | -1.85
58 | [N-]=[N+]=CC(=O)OC[C@H](N)C(=O)O [azaserine] | 0.0586
59 | C[N+]1([O-])[C@@H]2CC[C@H]1C[C@@H](OC(=O)C(CO)c1ccccc1)C2 (some centres undefined) [atropine oxide] | 0.0345
60 | N=C1NC(=O)N2CC12 (centres undefined) [imexon] | 0.18
61 | C[C@]12CC[C@@H]3c4ccc(OC(=O)N(CCCl)CCCl)cc4CC[C@H]3[C@@H]1CC[C@@H]2O [estramustine] | 0.11
62 | COc1ccc(O)c(C(C)(C)C)c1.COc1ccc(O)cc1C(C)(C)C [butylated hydroxyanisole] | -0.0266
63 | CC(=O)C1CCC2C3CCC4C[C@H](O)CCC4(C)C3C[C@H](O)C12C (stereo partly drawn) [dihydroxy (3alpha,12alpha)pregnan-20-one] | -0.039
64 | O=[N+]([O-])c1cc([As](=O)(O)O)ccc1O [roxarsone] | -0.0347
65 | C[C@]12C=CC(=O)C=C1CC[C@@H]1[C@@H]2CC[C@]2(C)C(=O)CC[C@@H]12 [androsta-1,4-dien-3,17-dione] | 0.183
66 | CC[C@@]1(O)C[C@H](O[C@H]2C[C@H](N(C)C)[C@H](O)[C@H](C)O2)c2c(cc3c(c2O)C(=O)c2c(O)ccc(O)c2C3=O)[C@H]1C(=O)OC [pyrromycin] | -0.603
67 | CCN1C[C@]2(COC)[C@H](O)C[C@H](OC)[C@@]34[C@@H]5C[C@@]6(O)[C@H](OC(=O)c7ccccc7)[C@@H]5[C@@](OC(C)=O)([C@@H]([C@H](OC)[C@H]23)[C@@H]14)[C@@H](O)[C@@H]6OC [aconitine] | 0.191
68 | CC(=O)CC1CCCCN1 (centres undefined) [pelletierine hydrochloride] | 0.252
69 | C[C@H]1CC[C@]2(NC1)O[C@H]1C[C@H]3[C@@H]4CC[C@H]5C[C@@H](O[C@@H]6O[C@H](CO)[C@H](O[C@@H]7O[C@H](CO)[C@@H](O)[C@H](O[C@@H]8OC[C@@H](O)[C@H](O)[C@H]8O)[C@H]7O[C@@H]7O[C@H](CO)[C@@H](O)[C@H](O)[C@H]7O)[C@H](O)[C@H]6O)CC[C@]5(C)[C@H]4CC[C@]3(C)[C@H]1[C@@H]2C [tomatine] | 0.0673
